From the supplement of paper PMC10849652
The other results are listed elsewhere or left out.

The chains behind the UniProt entries cited, without tags or fusion partners. Where a name states a change or a piece, a line headed by the entry shows the natural chain unless it says otherwise.
UniProt Q96E11: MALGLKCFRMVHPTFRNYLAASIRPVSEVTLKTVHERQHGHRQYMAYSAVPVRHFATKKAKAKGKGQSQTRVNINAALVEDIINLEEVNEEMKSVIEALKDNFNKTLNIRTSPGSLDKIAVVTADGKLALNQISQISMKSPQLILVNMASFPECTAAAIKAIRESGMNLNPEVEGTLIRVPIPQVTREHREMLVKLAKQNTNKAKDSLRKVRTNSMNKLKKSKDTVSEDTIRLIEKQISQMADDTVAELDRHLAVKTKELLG
UniProt O43347: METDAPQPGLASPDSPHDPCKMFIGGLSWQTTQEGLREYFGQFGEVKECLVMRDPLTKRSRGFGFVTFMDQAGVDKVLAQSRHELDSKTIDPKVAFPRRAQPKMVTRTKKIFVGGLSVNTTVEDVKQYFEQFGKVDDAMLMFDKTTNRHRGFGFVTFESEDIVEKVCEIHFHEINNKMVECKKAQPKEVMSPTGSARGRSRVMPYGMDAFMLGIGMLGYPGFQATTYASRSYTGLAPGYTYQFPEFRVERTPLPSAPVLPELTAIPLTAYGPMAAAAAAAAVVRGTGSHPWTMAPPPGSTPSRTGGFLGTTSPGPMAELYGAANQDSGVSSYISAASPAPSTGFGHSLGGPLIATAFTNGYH
UniProt P82909: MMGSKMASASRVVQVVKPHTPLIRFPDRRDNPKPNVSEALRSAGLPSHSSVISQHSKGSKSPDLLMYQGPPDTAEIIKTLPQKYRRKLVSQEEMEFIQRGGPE
UniProt O75570: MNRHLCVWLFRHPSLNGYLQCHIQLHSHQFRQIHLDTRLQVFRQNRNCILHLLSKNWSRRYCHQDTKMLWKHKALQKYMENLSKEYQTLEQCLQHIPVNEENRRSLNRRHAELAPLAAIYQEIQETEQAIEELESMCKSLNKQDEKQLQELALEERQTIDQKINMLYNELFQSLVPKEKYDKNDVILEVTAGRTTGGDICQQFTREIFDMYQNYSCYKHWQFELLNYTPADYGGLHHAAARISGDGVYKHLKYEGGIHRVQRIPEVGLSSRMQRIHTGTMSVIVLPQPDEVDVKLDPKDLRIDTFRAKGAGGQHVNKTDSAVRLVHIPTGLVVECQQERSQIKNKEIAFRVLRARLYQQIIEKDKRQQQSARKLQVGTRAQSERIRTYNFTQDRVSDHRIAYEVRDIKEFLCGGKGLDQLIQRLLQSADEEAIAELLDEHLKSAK
UniProt Q9NZJ7, whole entry, looked up: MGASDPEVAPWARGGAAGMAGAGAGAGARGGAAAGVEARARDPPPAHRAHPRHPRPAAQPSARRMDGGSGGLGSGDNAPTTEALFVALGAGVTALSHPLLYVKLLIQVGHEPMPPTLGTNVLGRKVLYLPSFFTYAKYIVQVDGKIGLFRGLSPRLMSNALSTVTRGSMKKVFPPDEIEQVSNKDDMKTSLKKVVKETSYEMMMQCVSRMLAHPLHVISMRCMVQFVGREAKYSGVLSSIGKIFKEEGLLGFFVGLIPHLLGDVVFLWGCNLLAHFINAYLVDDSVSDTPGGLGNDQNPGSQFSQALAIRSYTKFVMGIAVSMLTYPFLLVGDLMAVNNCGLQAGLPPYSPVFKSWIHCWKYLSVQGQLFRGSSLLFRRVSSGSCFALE
UniProt P03915, whole entry, looked up: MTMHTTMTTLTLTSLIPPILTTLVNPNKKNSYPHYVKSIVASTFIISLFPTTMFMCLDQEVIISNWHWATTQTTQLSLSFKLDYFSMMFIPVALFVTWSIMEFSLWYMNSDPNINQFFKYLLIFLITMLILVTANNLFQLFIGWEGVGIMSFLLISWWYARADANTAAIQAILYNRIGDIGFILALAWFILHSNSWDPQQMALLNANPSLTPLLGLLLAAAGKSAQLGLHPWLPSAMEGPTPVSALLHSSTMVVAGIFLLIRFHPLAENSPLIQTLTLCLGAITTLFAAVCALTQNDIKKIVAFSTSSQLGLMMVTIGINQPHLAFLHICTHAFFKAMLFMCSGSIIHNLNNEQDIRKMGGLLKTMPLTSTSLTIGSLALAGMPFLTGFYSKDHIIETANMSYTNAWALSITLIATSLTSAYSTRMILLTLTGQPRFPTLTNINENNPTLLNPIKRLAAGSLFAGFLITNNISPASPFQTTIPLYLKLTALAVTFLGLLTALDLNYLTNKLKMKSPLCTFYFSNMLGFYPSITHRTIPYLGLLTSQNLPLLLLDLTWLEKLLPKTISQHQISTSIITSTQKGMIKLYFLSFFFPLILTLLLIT
UniProt P58546, whole entry, looked up: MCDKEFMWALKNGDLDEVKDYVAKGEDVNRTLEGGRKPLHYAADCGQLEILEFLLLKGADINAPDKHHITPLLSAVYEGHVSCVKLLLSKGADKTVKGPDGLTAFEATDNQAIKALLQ
UniProt O94776: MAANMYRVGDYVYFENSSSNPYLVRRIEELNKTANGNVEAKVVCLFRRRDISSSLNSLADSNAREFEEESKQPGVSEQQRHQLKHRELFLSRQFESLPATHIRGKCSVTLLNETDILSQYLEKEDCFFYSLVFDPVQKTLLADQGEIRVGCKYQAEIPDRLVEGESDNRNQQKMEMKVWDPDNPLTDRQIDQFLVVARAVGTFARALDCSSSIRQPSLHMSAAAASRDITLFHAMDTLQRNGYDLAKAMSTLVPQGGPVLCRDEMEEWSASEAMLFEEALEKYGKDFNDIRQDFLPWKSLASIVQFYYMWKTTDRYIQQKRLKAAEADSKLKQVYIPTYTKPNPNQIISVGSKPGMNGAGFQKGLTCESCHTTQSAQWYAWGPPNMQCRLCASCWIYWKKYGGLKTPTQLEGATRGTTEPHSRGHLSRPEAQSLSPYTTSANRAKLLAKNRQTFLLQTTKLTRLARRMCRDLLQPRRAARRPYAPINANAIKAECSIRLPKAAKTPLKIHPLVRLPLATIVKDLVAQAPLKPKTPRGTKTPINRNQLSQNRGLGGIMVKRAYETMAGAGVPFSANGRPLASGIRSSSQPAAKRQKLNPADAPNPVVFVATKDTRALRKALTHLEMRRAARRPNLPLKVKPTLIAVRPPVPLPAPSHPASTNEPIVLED
UniProt Q9Y6C9: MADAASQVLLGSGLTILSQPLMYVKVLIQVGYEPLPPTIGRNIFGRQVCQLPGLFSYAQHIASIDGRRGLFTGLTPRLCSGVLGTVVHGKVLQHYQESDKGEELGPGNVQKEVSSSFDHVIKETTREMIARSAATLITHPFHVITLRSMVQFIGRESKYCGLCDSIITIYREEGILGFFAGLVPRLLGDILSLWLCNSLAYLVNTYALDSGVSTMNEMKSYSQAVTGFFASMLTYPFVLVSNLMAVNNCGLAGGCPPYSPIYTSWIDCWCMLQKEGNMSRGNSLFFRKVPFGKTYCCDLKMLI
UniProt P14649: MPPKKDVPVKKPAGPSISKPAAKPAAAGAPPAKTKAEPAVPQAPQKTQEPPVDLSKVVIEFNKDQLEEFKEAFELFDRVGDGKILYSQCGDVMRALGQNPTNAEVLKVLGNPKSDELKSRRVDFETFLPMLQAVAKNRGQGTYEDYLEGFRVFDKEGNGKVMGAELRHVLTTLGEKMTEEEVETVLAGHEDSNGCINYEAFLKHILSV
UniProt P53602: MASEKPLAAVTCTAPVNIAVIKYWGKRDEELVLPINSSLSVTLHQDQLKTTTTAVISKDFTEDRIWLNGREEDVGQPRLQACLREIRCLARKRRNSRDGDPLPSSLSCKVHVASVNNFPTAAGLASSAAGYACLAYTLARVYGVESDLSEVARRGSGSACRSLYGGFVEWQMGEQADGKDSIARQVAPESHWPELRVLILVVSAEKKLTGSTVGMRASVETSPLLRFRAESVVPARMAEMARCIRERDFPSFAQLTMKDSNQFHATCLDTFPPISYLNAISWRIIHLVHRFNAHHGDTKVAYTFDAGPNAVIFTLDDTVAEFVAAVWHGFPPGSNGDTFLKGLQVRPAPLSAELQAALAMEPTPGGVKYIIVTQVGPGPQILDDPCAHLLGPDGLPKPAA
UniProt P26038, whole entry, looked up: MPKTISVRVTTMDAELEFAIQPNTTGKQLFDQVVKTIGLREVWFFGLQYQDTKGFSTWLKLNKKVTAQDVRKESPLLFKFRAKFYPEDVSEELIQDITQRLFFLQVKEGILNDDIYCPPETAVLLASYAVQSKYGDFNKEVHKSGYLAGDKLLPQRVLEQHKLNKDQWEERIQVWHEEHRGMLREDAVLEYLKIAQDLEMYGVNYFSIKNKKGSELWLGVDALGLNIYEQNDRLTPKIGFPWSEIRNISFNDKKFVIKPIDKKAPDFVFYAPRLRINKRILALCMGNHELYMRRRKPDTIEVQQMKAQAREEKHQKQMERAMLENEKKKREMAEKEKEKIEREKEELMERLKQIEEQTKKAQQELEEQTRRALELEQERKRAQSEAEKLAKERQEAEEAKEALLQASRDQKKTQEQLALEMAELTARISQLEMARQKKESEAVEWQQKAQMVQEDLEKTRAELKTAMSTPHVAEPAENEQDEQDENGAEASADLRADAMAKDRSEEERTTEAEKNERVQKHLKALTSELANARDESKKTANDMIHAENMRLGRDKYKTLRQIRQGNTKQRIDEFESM
UniProt Q92614: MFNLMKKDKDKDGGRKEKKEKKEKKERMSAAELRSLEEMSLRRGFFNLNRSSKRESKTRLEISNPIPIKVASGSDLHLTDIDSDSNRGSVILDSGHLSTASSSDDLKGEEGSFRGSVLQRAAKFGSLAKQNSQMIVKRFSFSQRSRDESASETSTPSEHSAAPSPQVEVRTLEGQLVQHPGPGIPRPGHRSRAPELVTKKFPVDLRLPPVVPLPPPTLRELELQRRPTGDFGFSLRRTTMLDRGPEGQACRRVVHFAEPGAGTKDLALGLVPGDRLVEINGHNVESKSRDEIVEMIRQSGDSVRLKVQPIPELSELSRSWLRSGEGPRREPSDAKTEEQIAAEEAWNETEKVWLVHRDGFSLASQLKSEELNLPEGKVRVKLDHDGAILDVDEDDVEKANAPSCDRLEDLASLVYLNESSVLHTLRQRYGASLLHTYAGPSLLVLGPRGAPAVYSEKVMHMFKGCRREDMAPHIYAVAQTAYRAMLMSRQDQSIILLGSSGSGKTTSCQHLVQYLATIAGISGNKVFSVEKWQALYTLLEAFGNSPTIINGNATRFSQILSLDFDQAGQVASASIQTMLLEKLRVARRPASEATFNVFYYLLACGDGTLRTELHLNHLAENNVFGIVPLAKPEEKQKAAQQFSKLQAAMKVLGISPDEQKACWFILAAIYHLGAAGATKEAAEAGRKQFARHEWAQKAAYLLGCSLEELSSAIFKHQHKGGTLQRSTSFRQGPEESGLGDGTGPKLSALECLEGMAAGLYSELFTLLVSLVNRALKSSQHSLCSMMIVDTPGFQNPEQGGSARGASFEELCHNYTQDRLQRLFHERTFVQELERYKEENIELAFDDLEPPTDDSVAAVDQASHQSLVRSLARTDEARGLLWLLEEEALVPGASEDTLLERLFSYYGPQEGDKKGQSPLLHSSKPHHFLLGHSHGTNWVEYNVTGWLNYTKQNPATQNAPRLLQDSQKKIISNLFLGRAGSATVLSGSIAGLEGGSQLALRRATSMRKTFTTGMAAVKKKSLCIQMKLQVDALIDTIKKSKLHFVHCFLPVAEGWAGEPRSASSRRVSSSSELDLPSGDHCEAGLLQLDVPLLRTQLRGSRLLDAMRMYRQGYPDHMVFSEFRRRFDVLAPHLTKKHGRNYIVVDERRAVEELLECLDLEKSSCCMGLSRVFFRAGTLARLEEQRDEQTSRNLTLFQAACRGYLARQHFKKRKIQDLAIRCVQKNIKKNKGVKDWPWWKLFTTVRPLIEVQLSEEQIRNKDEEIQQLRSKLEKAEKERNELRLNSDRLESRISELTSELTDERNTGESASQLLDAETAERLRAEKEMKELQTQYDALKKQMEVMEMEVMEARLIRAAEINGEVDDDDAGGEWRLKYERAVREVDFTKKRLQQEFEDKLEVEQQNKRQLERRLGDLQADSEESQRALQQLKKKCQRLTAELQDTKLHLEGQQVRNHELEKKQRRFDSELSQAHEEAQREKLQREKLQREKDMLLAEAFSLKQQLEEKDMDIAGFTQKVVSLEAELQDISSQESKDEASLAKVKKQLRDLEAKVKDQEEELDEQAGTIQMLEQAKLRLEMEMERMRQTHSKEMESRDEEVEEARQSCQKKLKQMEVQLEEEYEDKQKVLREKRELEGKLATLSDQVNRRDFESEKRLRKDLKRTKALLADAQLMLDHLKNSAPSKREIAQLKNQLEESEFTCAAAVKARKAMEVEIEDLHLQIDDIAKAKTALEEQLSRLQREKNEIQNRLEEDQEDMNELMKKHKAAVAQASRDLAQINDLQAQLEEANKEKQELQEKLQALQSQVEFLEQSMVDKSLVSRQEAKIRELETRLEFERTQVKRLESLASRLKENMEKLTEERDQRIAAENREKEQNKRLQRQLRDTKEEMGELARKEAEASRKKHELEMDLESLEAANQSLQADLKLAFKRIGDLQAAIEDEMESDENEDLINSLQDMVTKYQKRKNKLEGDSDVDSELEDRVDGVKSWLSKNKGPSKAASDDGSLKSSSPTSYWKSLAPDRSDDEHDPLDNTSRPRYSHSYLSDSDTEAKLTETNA

Experiments:
Test in all cases: log2 fold change, soluble protein after heating vs DMSO (PISA); higher = thermal stabilisation; K562 cells, 10 uM, 30 min; active = over 0.2 and 3.5 SD of the protein, either way, in both replicates (recomputed)
[1] = compound: CS(=O)(=O)c1ccc(-c2cnc(N)c(C(=O)Nc3ccccc3)n2)cc1
Procedure, shortened: (§1)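 K562 cells (2×10^6 cells/mL) were treated with 10 μM compound for 30 min, and aliquots were heated for 3 min over 48°C-58°C. Pooled aliquots were extracted in PBS with 0.5% NP-40 at 4°C, and the supernatant after 21,000xg for 90 min was measured by TMTpro 16plex LC-MS/MS with channel sums equalised. Reported thermal stability, relative to control samples and from duplicates, is a log2 fold change.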

crizotinib = compound: C[C@@H](Oc1cc(-c2cnn(C3CCNCC3)c2)cnc1N)c1c(Cl)ccc(F)c1Cl [crizotinib]
Procedure, shortened: as §1

[2] = compound: C[C@@H]1COCCN1C2=NC(=NC(=C2)C3(CC3)S(=O)(=O)C)C4=C5C=CNC5=CC=C4
Procedure, shortened: as §1

[3] = compound: C[C@H](C1=CC=C(C=C1)C(=O)NC2=C3C=CNC3=NC=C2)N
Procedure, shortened: as §1

duvelisib = compound: C[C@H](Nc1ncnc2nc[nH]c12)c1cc2cccc(Cl)c2c(=O)n1-c1ccccc1 [duvelisib]
Procedure, shortened: as §1

gandotinib = compound: Cc1cc(Nc2cc(CN3CCOCC3)c3nc(C)c(Cc4ccc(Cl)cc4F)n3n2)n[nH]1 [gandotinib]
Procedure, shortened: as §1

tozasertib = compound: Cc1cc(Nc2cc(N3CCN(C)CC3)nc(Sc3ccc(NC(=O)C4CC4)cc3)n2)n[nH]1 [tozasertib]
Procedure, shortened: as §1

[4] = compound: Cc1cc(SCc2sc(-c3ccc(C(F)(F)F)cc3)nc2C)ccc1OCC(=O)O
Procedure, shortened: as §1

doramapimod = compound: Cc1ccc(-n2nc(C(C)(C)C)cc2NC(=O)Nc2ccc(OCCN3CCOCC3)c3ccccc23)cc1 [doramapimod]
Procedure, shortened: as §1

ispinesib = compound: Cc1ccc(C(=O)N(CCCN)[C@@H](c2nc3cc(Cl)ccc3c(=O)n2Cc2ccccc2)C(C)C)cc1 [ispinesib]
Procedure, shortened: as §1

bafetinib = compound: Cc1ccc(NC(=O)c2ccc(CN3CC[C@H](N(C)C)C3)c(C(F)(F)F)c2)cc1Nc1nccc(-c2cncnc2)n1 [bafetinib]
Procedure, shortened: as §1

[5] = compound: Cc1cccc(CC(=O)N2CCc3c2ccc(-c2cn(C)c4ncnc(N)c24)c3F)n1
Procedure, shortened: as §1

nilotinib = compound: Cc1cn(-c2cc(NC(=O)c3ccc(C)c(Nc4nccc(-c5cccnc5)n4)c3)cc(C(F)(F)F)c2)cn1 [nilotinib]
Procedure, shortened: as §1

[6] = compound: Cc1nc(Nc2n[nH]c3c2CN(C(=O)N[C@H](CN(C)C)c2ccccc2)C3(C)C)c2sccc2n1
Procedure, shortened: as §1

dasatinib = compound: Cc1nc(Nc2ncc(C(=O)Nc3c(C)cccc3Cl)s2)cc(N2CCN(CCO)CC2)n1 [dasatinib]
Procedure, shortened: as §1

[7] = compound: Cc1ncc(-c2ccnc(Nc3ccc(S(C)(=O)=O)cc3)n2)n1C(C)C
Procedure, shortened: as §1

[8] = compound: Cn1cc(-c2ccc3c(c2)CCN3C(=O)Cc2cccc(C(F)(F)F)c2)c2c(N)ncnc21
Procedure, shortened: as §1

[9] = compound: Cn1cc(-c2ccc3nnc(C(F)(F)c4ccc5ncccc5c4)n3n2)cn1
Procedure, shortened: as §1

tipifarnib = compound: Cn1cncc1[C@@](N)(c1ccc(Cl)cc1)c1ccc2c(c1)c(-c1cccc(Cl)c1)cc(=O)n2C [tipifarnib]
Procedure, shortened: as §1

mubritinib = compound: FC(F)(F)c1ccc(/C=C/c2nc(COc3ccc(CCCCn4ccnn4)cc3)co2)cc1 [mubritinib]
Procedure, shortened: as §1

Measured: log2 fold change

MRRF (UniProt Q96E11)
inactive: [1] 0.009 | crizotinib 0.101 | [2] 0.102 | [3] 0.01 | duvelisib -0.026 | gandotinib 0.014 | tozasertib 0.036 | [4] -0.054 | doramapimod 0.008 | ispinesib 0.11 | bafetinib 0.046 | [5] 0.051 | nilotinib -0.027 | [6] -0.035 | dasatinib -0.027 | [7] 0.052 | [8] 0.042 | [9] 0.02 | tipifarnib -0.015 | mubritinib -0.012

MTMR12 (UniProt Q9C0I1)
inactive: [1] 0.006 | crizotinib 0.001 | [2] 0.022 | [3] -0.025 | duvelisib 0.089 | gandotinib -0.043 | tozasertib 0.006 | [4] -0.056 | doramapimod -0.013 | ispinesib 0.067 | bafetinib -0.031 | [5] -0.088 | nilotinib 0.011 | [6] -0.015 | dasatinib -0.015 | [7] -0.008 | [8] 0.015 | [9] 0.06 | tipifarnib 0.029 | mubritinib 0.002

MSMO1 (UniProt Q15800)
inactive: [1] 0.043 | crizotinib -0.045 | [2] -0.002 | [3] -0.074 | duvelisib 0.003 | gandotinib -0.18 | tozasertib -0.007 | [4] -0.036 | doramapimod -0.061 | ispinesib -0.076 | bafetinib -0.135 | [5] 0.033 | nilotinib 0 | [6] -0.001 | dasatinib 0.023 | [7] -0.034 | [8] 0.022 | [9] 0 | tipifarnib 0.117 | mubritinib 0.049

MSI1 (UniProt O43347)
inactive: [1] -0.039 | crizotinib 0.204 | [2] -0.183 | [3] 0.058 | duvelisib -0.032 | gandotinib 0.008 | tozasertib -0.035 | [4] 0.091 | doramapimod 0.02 | ispinesib -0.123 | bafetinib -0.017 | [5] 0.043 | nilotinib -0.076 | [6] 0.007 | dasatinib 0.068 | [7] 0.124 | [8] -0.187 | [9] -0.062 | tipifarnib 0.028 | mubritinib -0.076

Reprinted at random: 2 entries already listed.
MTMR12 (UniProt Q9C0I1)
inactive: [1] 0.006 | crizotinib 0.001 | [2] 0.022 | [3] -0.025 | duvelisib 0.089 | gandotinib -0.043 | tozasertib 0.006 | [4] -0.056 | doramapimod -0.013 | ispinesib 0.067 | bafetinib -0.031 | [5] -0.088 | nilotinib 0.011 | [6] -0.015 | dasatinib -0.015 | [7] -0.008 | [8] 0.015 | [9] 0.06 | tipifarnib 0.029 | mubritinib 0.002

MSI1 (UniProt O43347)
inactive: [1] -0.039 | crizotinib 0.204 | [2] -0.183 | [3] 0.058 | duvelisib -0.032 | gandotinib 0.008 | tozasertib -0.035 | [4] 0.091 | doramapimod 0.02 | ispinesib -0.123 | bafetinib -0.017 | [5] 0.043 | nilotinib -0.076 | [6] 0.007 | dasatinib 0.068 | [7] 0.124 | [8] -0.187 | [9] -0.062 | tipifarnib 0.028 | mubritinib -0.076

(cont.)

MRPS36 (UniProt P82909)
inactive: [1] 0.059 | crizotinib -0.052 | [2] -0.027 | [3] -0.095 | duvelisib -0.08 | gandotinib 0.028 | tozasertib -0.035 | [4] -0.121 | doramapimod -0.013 | ispinesib -0.012 | bafetinib -0.036 | [5] 0.006 | nilotinib 0.036 | [6] 0.038 | dasatinib 0 | [7] -0.02 | [8] -0.021 | [9] -0.1 | tipifarnib 0.095 | mubritinib -0.068

MTRF1 (UniProt O75570)
inactive: [1] 0.259

MTCH1 (UniProt Q9NZJ7)
inactive: [1] 0.012 | crizotinib 0.115 | [2] 0.042 | [3] -0.045 | duvelisib -0.025 | gandotinib -0.066 | tozasertib -0.006 | [4] -0.006 | doramapimod 0.063 | ispinesib 0.026 | bafetinib 0.053 | [5] 0.024 | nilotinib 0.086 | [6] 0.019 | dasatinib 0.118 | [7] -0.045 | [8] 0.042 | [9] -0.029 | tipifarnib 0.051 | mubritinib 0.015

MUC1, A0A087WWM1
inactive: [1] 0.045 | crizotinib 0.051 | [2] -0.01 | [3] -0.15 | duvelisib 0.165 | gandotinib 0.055 | tozasertib -0.041 | [4] -0.151 | doramapimod 0.004 | ispinesib 0.088 | bafetinib 0.001 | [5] -0.138 | nilotinib 0.004 | [6] -0.12 | dasatinib 0.053 | [7] -0.033 | [8] 0.075 | [9] -0.006 | tipifarnib -0.011 | mubritinib 0.295

MT-ND5 (UniProt P03915)
inactive: [1] 0.002 | crizotinib -0.061 | [2] 0.039 | [3] 0.009 | duvelisib 0.022 | gandotinib -0.182 | tozasertib -0.013 | [4] -0.09 | doramapimod 0.043 | ispinesib -0.026 | bafetinib -0.014 | [5] -0.094 | nilotinib 0.008 | [6] 0.005 | dasatinib 0.086 | [7] -0.051 | [8] -0.017 | [9] 0.031 | tipifarnib -0.046 | mubritinib -0.062

MTPN (UniProt P58546)
inactive: [1] 0.014 | crizotinib 0.202 | [2] -0.003 | [3] -0.147 | duvelisib 0.205 | gandotinib 0.211 | tozasertib 0.167 | [4] 0.081 | doramapimod -0.045 | ispinesib 0.304 | bafetinib -0.02 | [5] 0.035 | nilotinib 0.032 | [6] -0.053 | dasatinib 0.009 | [7] -0.032 | [8] 0.124 | [9] 0.349 | tipifarnib -0.105 | mubritinib 0.031

MTA2 (UniProt O94776)
inactive: [1] -0.027 | crizotinib -0.052 | [2] 0.098 | [3] 0.022 | duvelisib 0 | gandotinib 0.03 | tozasertib 0.108 | [4] 0.097 | doramapimod -0.015 | ispinesib -0.057 | bafetinib 0.049 | [5] 0.038 | nilotinib -0.052 | [6] -0.132 | dasatinib -0.093 | [7] -0.025 | [8] 0.004 | [9] 0.027 | tipifarnib -0.004 | mubritinib -0.071

MTCH2 (UniProt Q9Y6C9)
inactive: [1] 0.025 | crizotinib 0.098 | [2] 0.061 | [3] 0.01 | duvelisib 0.009 | gandotinib -0.027 | tozasertib -0.037 | [4] -0.037 | doramapimod -0.014 | ispinesib 0.002 | bafetinib -0.055 | [5] 0.04 | nilotinib -0.031 | [6] 0.017 | dasatinib 0.065 | [7] -0.045 | [8] 0.041 | [9] 0.027 | tipifarnib 0.037 | mubritinib 0.01

MYL6B (UniProt P14649)
inactive: [1] -0.002 | crizotinib 0.067 | [2] 0.009 | [3] 0.003 | duvelisib 0.025 | gandotinib -0.001 | tozasertib 0.025 | [4] -0.053 | doramapimod 0.009 | ispinesib 0.008 | bafetinib -0.04 | [5] -0.011 | nilotinib 0.019 | [6] -0.03 | dasatinib 0.008 | [7] -0.005 | [8] 0.045 | [9] 0.026 | tipifarnib 0.011 | mubritinib 0.012

MVD (UniProt P53602)
inactive: [1] 0.021 | crizotinib -0.041 | [2] 0.059 | [3] -0.042 | duvelisib -0.08 | gandotinib -0.022 | tozasertib -0.007 | [4] -0.026 | doramapimod 0.017 | ispinesib 0.011 | bafetinib -0.027 | [5] 0.03 | nilotinib 0.03 | [6] -0.037 | dasatinib 0.094 | [7] 0 | [8] 0.083 | [9] -0.024 | tipifarnib -0.059 | mubritinib 0.017

MSN (UniProt P26038)
inactive: [1] -0.015 | crizotinib 0.049 | [2] 0.037 | [3] -0.06 | duvelisib -0.006 | gandotinib -0.028 | tozasertib 0.027 | [4] 0.003 | doramapimod -0.001 | ispinesib 0.081 | bafetinib 0.029 | [5] 0.015 | nilotinib 0.007 | [6] 0.009 | dasatinib -0.019 | [7] -0.004 | [8] 0.038 | [9] -0.017 | tipifarnib -0.067 | mubritinib 0.043

MYO18A (UniProt Q92614)
inactive: [1] 0.044 | crizotinib 0.022 | [2] -0.051 | [3] 0.177 | duvelisib -0.052 | gandotinib -0.008 | tozasertib -0.039 | [4] 0.027 | doramapimod 0.078 | ispinesib -0.103 | bafetinib 0.031 | [5] -0.026 | nilotinib -0.014 | [6] -0.119 | dasatinib 0.01 | [7] -0.057 | [8] -0.049 | [9] -0.045 | tipifarnib -0.01 | mubritinib -0.076

MRPS23 (UniProt Q9Y3D9)
inactive: [1] 0.014 | crizotinib -0.028 | [2] 0.095 | [3] 0.136 | duvelisib -0.021 | gandotinib -0.134 | tozasertib 0.011 | [4] 0.084 | doramapimod 0.034 | ispinesib -0.214 | bafetinib 0.151 | [5] 0.184 | nilotinib -0.145 | [6] 0.068 | dasatinib -0.107 | [7] -0.038 | [8] -0.036 | [9] 0.021 | tipifarnib -0.011 | mubritinib 0.195
